Experimental data as given in publication PMC4063770.
No constants are given. Whether binding was seen depends on the method and setting. In cells and extracts the contact can be indirect. Some entries that bind do so weakly or less than the wild type.

By UniProt entry, the sequences of proteins in these tests, tags left out.
UniProt O70218: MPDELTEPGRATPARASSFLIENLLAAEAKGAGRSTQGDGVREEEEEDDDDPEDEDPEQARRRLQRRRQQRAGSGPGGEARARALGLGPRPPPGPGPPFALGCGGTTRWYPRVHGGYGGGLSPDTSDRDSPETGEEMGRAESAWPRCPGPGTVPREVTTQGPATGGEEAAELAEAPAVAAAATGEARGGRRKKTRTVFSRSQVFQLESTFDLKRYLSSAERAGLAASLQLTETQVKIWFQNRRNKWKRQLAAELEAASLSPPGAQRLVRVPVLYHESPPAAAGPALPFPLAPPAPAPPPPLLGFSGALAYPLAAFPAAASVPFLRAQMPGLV

Columns and labels:
[1] = target: HMX1 fused to Renilla luciferase (RLUC-HMX1) and HMX1 fused to GFP^2 (GFP^2-HMX1) (UniProt O70218); test: FRET or BRET; BRET^2 in HEK 293T cells co-transfected with the RLUC fusion (donor) and increasing amounts of the GFP^2 fusion (acceptor); 200'000 cells in DPBS per well, coelenterazine 400A (DeepBlueC) 5 uM, 410 nm and 515 nm filters
[2] = target: HMX1 fused to Renilla luciferase (RLUC-HMX1) and HMX1 fused to GFP^2 (GFP^2-HMX1) (UniProt O70218); test: co-IP; HEK 293T lysate, 200 ug protein; IP with anti-Renilla luciferase antibody overnight at 4 C, protein G plus agarose; Western blot with anti-GFP antibody

binding [1]: binds | binding [2]: binds
Substance: HMX1 fused to Renilla luciferase (RLUC-HMX1) and HMX1 fused to GFP^2 (GFP^2-HMX1) (from UniProt O70218 1-332)
